Here are results for 63 compounds from PubChem BioAssay AID493014 (National Center for Advancing Translational Sciences (NCATS), 2011).

A short description of the assay: qHTS Assay to Find Inhibitors of Chronic Active B-Cell Receptor Signaling. The settings on record: ABC-DLBCL IkBa-CBG/CBR reporter, luminescence ratio (green luciferase fused to IkBa over red control in TMD8 lymphoma cells), 4 h. In short, it runs like this: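 Compounds up to 46 uM were incubated four hours with TMD8 cells whose green CBG68 luciferase is fused to IkappaBalpha; red CBR luminescence normalised the signal, and concentration-effect curves were fitted to fusion, red and ratio data.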
(In qHTS, concentration-response curves come from the screen itself.)

The mark [1] stands for this setting: measured here: CBR red luminescence, cell number.
Setting [2] is: measured here: IkBa-CBG green luminescence.

The other results are listed elsewhere or left out. The main result of the screen is listed elsewhere. These columns were measured beside it and carry no call. Compounds called inactive in the main read-out are mostly missing here. Words in brackets tell the shape of the fitted curve; partial curves, single points and poor fits give uncertain potencies.

Broadly, the AC50 is the concentration giving half of the maximal activity seen. Take `NNC(=O)c1cccc(Cn2cc(Br)c([N+](=O)[O-])n2)c1`: the concentration at half-maximal activity (AC50) under setting [1] is 10 µM [falling, partial curve, poor fit]. Same read-out and setting: to `CCCCOC(=O)C1Cc2ccccc2C(=O)O1` (configuration not stated) belongs 18.4 µM [rising, single point]. As to `COc1c(S(=O)(=O)N2CCCC2)ccc(Cl)c1Cl`, under setting [1], the AC50 was 23.1 µM [rising, partial curve, poor fit]. Same read-out and setting: to `Cc1cccc(OCC(=O)Nc2ccccc2F)c1` belongs 8.91 µM [falling, partial curve, poor fit]. Regarding `O=C(O)C1CC=CCC1C(=O)Nc1ccc2c(c1)OCCO2` (configuration not stated), the AC50 under setting [2] is 20.6 µM [rising, partial curve, poor fit]. Consider `CCCc1cc(=O)oc2c3c(c4c(c12)OC(C)(C)C=C4)OC(C)C(C)C3O` (configuration not stated), for which the half-maximal activity concentration (AC50) under setting [1] is 35.5 µM [falling, single point]. For `CCOc1ccc(NC(=O)N2CCC(c3nc4ccccc4[nH]3)CC2)cc1`, the half-maximal activity concentration (AC50) under setting [1] was 2.82 µM [rising, full curve, poor fit]. For `CCOc1ccc(S(=O)(=O)NCCC(=O)OCC(=O)Nc2cc(C)on2)cc1`, the half-maximal activity concentration (AC50) under setting [1] was 7.94 µM [rising, partial curve]. Still for that read-out and setting: to `CC(=O)N1c2ccc(F)c(F)c2C[C@H]1C` belongs 0.231 µM [falling, full curve].

Take `Cc1ccc(-c2cn3cc([N+](=O)[O-])ccc3n2)cc1`: under setting [1], the AC50 is 29.1 µM [falling, single point]. On the same count and under the same terms, to `COc1ccc(S(=O)(=O)c2c(N)n(Cc3ccco3)c3nc4ccccc4nc23)cc1` belongs 11.2 µM [falling, partial curve]. The same measure, in the same setting: under `COc1cc(-c2nc3ccc4ccccc4c3c3c2CCC3)cc(OC)c1OC` stands 11.2 µM [falling, partial curve]. The same measure, in the same setting: to `CCN(CC)CCNc1ncnc2c1sc1nc(N3CCOCC3)c3c(c12)CC(C)(C)SC3` belongs 7.08 µM [rising, full curve, poor fit]; to `COc1ccc2[nH]c3ccccc3c2c1`, 2.82 µM [rising, partial curve, poor fit]. Take `CCCCNC(=O)c1cn(CC)c2cc(N3CCN(C)CC3)c(F)cc2c1=O`: the half-maximal activity concentration (AC50) under setting [1] is 35.5 µM [rising, single point]. Still for that read-out and setting: under `O=C(COc1ccc2c(-c3ccccc3)cc(=O)oc2c1)NCC(O)c1ccccc1` (configuration not stated) stands 2.82 µM [falling, single point]; under `CC1=CC(=O)O[C@@H]1[C@@]1(C)C[C@H]2OC(=O)C[C@H]3[C@@H](C)C(=O)C(O)=C1[C@@]23CO`, 29.1 µM [falling, single point]. Turning to `Fc1cccc(Cl)c1CSc1nnc(CNc2ccccc2)o1`, the AC50 under setting [1] was 8.91 µM [rising, partial curve, poor fit]. Still for that read-out and setting: under `O=C(COc1ccc(Cl)cc1Cl)NC(=S)N1CCCc2ccccc21` stands 18.4 µM [rising, single point]; under `Cc1[nH]nc2c1C1(CCN(Cc3ccccc3)CC1)C(C#N)=C(N)O2`, 0.146 µM [falling, full curve, poor fit]; under `O=C(NN1C(=O)C2C(C1=O)C1C=CC2C12CC2)c1ccccc1` (configuration not stated), 6.31 µM [rising, single point]. Still for that read-out and setting: under `CCOC(=O)c1ccc(NC(=O)c2c(NC(=O)CCC(=O)O)sc3c2CCCCC3)cc1` stands 14.1 µM [falling, single point].

On to `Cc1ccc(C)c(-c2csc(N)c2C(=O)OC(C)C)c1`, for which the concentration at half-maximal activity (AC50) under setting [1] was 20.6 µM [rising, single point]. Still for that read-out and setting: to `Cc1ccc(NC(=O)c2c(C)oc3ncn(C)c(=O)c23)cc1F` belongs 2.24 µM [falling, full curve]; to `O=C(CC1SC(=O)N(c2ccccc2)C1=O)Nc1ccc(Br)cc1` (configuration not stated), 25.1 µM [falling, single point]; to `Cc1nnc(-c2cnn(C)c2N)n1Cc1ccccc1F`, 6.51 µM [falling, single point]. As to `CC[C@]12c3[nH]c4cc(CCC(=O)N(C)C)ccc4c3CCN1C(=O)[C@@H](CC(=O)NCCCN(C)C)C[C@@H]2C(=O)N1CCN(C(=O)c2ccco2)CC1`, the AC50 under setting [1] was 18.4 µM [rising, partial curve] and the AC50 under setting [2] was 14.6 µM [falling, partial curve]. Consider `COC(=O)c1cc(S(=O)(=O)Nc2nn(C)c3cccc(F)c23)oc1C`, for which the AC50 under setting [1] is 20 µM [rising, single point]. The same measure, in the same setting: under `Cc1ccc(NC2=C(N3CCOCC3)C(=O)c3ccccc3C2=O)cc1` stands 0.82 µM [falling, full curve, poor fit]; under `COc1ccccc1NC(=O)N1CCCC1C(=O)Nc1ccc(NC(C)=O)cc1` (configuration not stated), 14.1 µM [rising, single point]; under `CC(Nc1ccccc1)C(=O)Nc1ccc(F)cc1` (configuration not stated), 10.3 µM [rising, partial curve]. The same measure, in the same setting: to `CC(=O)Nc1cccc(NC(=O)c2cc3ccccc3o2)c1` belongs 3.98 µM [falling, partial curve]; to `Nc1nc(-c2ccccc2)cn1N`, 1.58 µM [falling, full curve, poor fit]; to `Cc1cccc(/C(N)=N/OC(=O)c2cccs2)c1`, 3.98 µM [rising, single point].

Turning to `Cc1ccc(S(=O)(=O)NCc2ccncc2)c(C)c1C`, under setting [1], the AC50 was 15.8 µM [falling, partial curve]. Same read-out and setting: under `CCc1cccc(C)c1NC(=S)N(CCOC)C(C)c1ccco1` (configuration not stated) stands 0.794 µM [rising, full curve, poor fit]; under `O=C1NC2(CCCCCC2)C(=O)N1Cc1ccccc1`, 35.5 µM [falling, single point].

`CCCCCCC(=O)NN1CCN(C)CC1`: the AC50 under setting [1] is 0.58 µM [falling, full curve, poor fit].

`COc1ccccc1NC(=O)CSC1=Nc2ccccc2C2=NC(CC(=O)NCCc3ccccc3)C(=O)N12` (configuration not stated): the concentration at half-maximal activity (AC50) under setting [1] is 8.91 µM [falling, partial curve, poor fit]. Still for that read-out and setting: to `O=C(CCc1ccccc1)Nc1ccc(N2CCOCC2)cc1` belongs 22.4 µM [rising, single point]; to `Cc1cc(/C=C(\C#N)C(=O)NCc2cccs2)c(C)[nH]1`, 10 µM [falling, partial curve, poor fit]; to `COc1ccc2nc(NC(=O)CN3C(=O)NC4(CCCCC4)C3=O)sc2c1`, 22.4 µM [falling, single point]. Still for that read-out and setting: to `c1ccc(Cn2nnc(CNc3ccccc3)c2-c2c(CNc3ccccc3)nnn2Cc2ccccc2)cc1` belongs 35.5 µM [falling, single point]; to `CC(=O)c1c(C)[nH]c(C(=O)OCC(=O)N2CC(=O)Nc3ccccc32)c1C`, 29.1 µM [rising, single point].

In the case of `COc1cc(NC(=O)c2cc3sccc3n2C)cc(OC)c1`, the concentration at half-maximal activity (AC50) under setting [1] is 0.13 µM [falling, full curve].

For the compound `Cn1cccc1C(=O)OCC(=O)NCc1ccc2c(c1)OCO2`, the AC50 under setting [1] was 6.51 µM [rising, single point]. Same read-out and setting: to `CC(C)[C@H](NC(=O)c1ccccc1)C(=O)OCC(=O)c1ccc2c(c1)NC(=O)CO2` belongs 4.11 µM [rising, full curve, poor fit]. Turning to `O=C(O)c1ccc(CN2C(=O)c3cccc4c([N+](=O)[O-])ccc(c34)C2=O)cc1`, the AC50 under setting [2] is 35.5 µM [falling, single point]. For `CC1=Nc2cc(C(=O)NC3CCCCC3)ccc2Sc2ccc(Cl)cc21`, the half-maximal activity concentration (AC50) under setting [1] is 2 µM [rising, full curve, poor fit] and the concentration at half-maximal activity (AC50) under setting [2] was 1.41 µM [falling, full curve].

Consider `Cc1cc(C)c(NC(=O)c2ccccc2N(C)S(C)(=O)=O)c(C)c1`, for which the half-maximal activity concentration (AC50) under setting [1] was 2.06 µM [falling, single point]. The same measure, in the same setting: under `Nc1c(C(=O)Nc2ccc(F)cc2)nnn1-c1cccc(C(F)(F)F)c1` stands 2.82 µM [falling, single point]; under `CCCCCCCn1c2c(c(=N)c3c1CCC3)CCCC2`, 12.6 µM [falling, partial curve, poor fit]; under `COc1ccccc1C(=O)n1nc(-c2cccnc2)nc1NCc1ccccc1`, 17.8 µM [falling, partial curve, poor fit].

With `C[C@@H](C(=O)NC1CCCCC1)N1C(=O)N2CCc3c([nH]c4ccccc34)[C@@]2(C)C1=O`, the AC50 under setting [1] is 17.8 µM [falling, partial curve, poor fit].

Regarding `COc1ccc(-c2csc3ncn(CC(=O)N4CCOCC4)c(=O)c23)cc1`, the concentration at half-maximal activity (AC50) under setting [1] was 3.16 µM [rising, single point].

On to `CC(=O)c1c(C)[nH]c(C(=O)OCC(=O)Nc2ccccc2Cl)c1C`, for which the AC50 under setting [1] is 12.6 µM [falling, single point]. On the same count and under the same terms, to `O=C(O)c1ccc(/C=C(\c2nc3ccccc3[nH]2)c2nc3ccccc3s2)cc1` belongs 35.5 µM [falling, single point].

Consider `O/N=C1/CC/C(=N\O)c2nn(-c3ccccc3)nc21`, for which the AC50 under setting [2] was 3.26 µM [falling, partial curve, poor fit].

As to `CN(C)S(=O)(=O)c1ccc(Cl)c(C(=O)NCc2ccco2)c1`, the AC50 under setting [1] was 4.11 µM [falling, single point]. `C/C(=N\NC(=O)c1c([N+](=O)[O-])c(C)nn1C)c1ccc(NC(=O)C2CCCC2)cc1`: the AC50 runs as follows: under setting [1], 11.2 µM [rising, partial curve]; under setting [2], 7.94 µM [falling, partial curve]. As to `COCCNc1nc(C)cc(-c2cc(-c3ccc(Cl)cc3)on2)n1`, under setting [1], the AC50 was 2.82 µM [falling, partial curve, poor fit].

Take `CCNCCC(CCC(C)C)c1ccc2c(c1)OCO2` (configuration not stated): the AC50 under setting [1] is 25.1 µM [falling, single point].

As for `CCc1ccc(NC(=O)CSc2nc(=O)n(CCCN3CCOCC3)c3c2CCCC3)cc1`, the AC50 was 6.51 µM [rising, single point] under setting [1] and 7.31 µM [falling, partial curve, poor fit] under setting [2].
